Results published in patent US8268330B2 (priority 2007, dated 2012).
Some results were stated once for a whole list of compounds, not compound by compound.

Test system: HIF-1α in THP-1 and HL-60 cells and guinea pig alveolar macrophages
Assay: Induction of HIF-1α in myelomonocytic cells and alveolar macrophages exposed to iron chelators in vitro
Type: cell-based, human; guinea pig
Settings: hours of drug-exposure

## mycobactin J
  time of maximum detectable effect of HIF-1α induction: 16 to 24 h
